Results are given in words; binding and its absence hold for the method and conditions named. In cells and extracts the contact can be indirect. Some binding calls cover weakened binding; strength is not graded here.
Columns and labels:
[1] = molecular target: human wild type CFTR (cystic fibrosis transmembrane conductance regulator) (human) (UniProt P13569); test: co-IP; anti-CFTR antibody M3A7 on Protein G magnetic beads, 500 µg whole cell lysate of Wt-CFTR or G551D-CFTR HeLa cells in RIPA buffer, 4°C overnight; calumenin detected by western blot and quantified
[2] = molecular target: G551D-CFTR (Gly to Asp at position 551) (human) (UniProt P13569); test: as above

By UniProt entry, the sequences of proteins in these tests, tags left out. Where a name states a change or a piece, a line headed by the entry shows the natural chain unless it says otherwise.
UniProt P13569: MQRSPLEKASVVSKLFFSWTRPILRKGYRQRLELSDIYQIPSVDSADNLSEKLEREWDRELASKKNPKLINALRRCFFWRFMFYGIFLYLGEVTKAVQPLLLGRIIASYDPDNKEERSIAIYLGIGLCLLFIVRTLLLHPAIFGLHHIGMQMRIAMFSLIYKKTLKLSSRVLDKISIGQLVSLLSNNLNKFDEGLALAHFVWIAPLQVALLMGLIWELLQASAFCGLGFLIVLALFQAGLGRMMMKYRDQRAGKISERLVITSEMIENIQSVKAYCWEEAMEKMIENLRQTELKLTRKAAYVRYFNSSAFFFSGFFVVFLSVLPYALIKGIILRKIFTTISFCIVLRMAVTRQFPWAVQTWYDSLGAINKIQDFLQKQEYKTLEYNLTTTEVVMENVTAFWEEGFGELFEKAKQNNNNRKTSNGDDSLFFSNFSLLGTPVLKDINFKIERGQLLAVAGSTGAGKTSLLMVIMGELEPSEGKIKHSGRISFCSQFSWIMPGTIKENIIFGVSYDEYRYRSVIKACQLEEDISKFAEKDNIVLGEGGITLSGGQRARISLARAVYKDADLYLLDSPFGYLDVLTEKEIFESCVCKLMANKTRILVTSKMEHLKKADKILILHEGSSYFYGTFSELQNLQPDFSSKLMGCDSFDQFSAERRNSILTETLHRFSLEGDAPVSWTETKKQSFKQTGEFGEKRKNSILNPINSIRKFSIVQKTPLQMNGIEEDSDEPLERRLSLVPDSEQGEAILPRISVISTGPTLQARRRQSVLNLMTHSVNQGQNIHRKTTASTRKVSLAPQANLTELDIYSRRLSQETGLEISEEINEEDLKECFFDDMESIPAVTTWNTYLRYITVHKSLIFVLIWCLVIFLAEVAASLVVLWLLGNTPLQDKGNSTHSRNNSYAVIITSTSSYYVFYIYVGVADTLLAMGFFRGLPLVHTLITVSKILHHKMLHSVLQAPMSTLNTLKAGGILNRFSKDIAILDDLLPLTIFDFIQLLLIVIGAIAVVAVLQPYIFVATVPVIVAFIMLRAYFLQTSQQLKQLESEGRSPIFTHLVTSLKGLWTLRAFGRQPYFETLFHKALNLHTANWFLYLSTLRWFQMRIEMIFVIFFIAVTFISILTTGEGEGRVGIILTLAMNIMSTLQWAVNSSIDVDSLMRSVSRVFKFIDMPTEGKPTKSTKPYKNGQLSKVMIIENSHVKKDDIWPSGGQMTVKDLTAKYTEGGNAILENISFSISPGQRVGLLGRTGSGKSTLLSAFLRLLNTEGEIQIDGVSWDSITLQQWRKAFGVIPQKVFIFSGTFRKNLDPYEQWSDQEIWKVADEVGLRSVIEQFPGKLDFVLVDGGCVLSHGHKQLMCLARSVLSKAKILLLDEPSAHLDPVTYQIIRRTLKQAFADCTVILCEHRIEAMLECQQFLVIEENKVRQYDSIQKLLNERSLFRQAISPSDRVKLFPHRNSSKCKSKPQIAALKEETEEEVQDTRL

binding [1]: binds
binding [2]: binds
B1: Calumenin (protein, UniProt O43852 20-315)
chain: KPTEKKDRVHHEPQLSDKVHNDAQSFDYDHDAFLGAEEAKTFDQLTPEESKERLGKIVSKIDGDKDGFVTVDELKDWIKFAQKRWIYEDVERQWKGHDLNEDGLVSWEEYKNATYGYVLDDPDPDDGFNYKQMMVRDERRFKMADKDGDLIATKEEFTAFLHPEEYDYMKDIVVQETMEDIDKNADGFIDLEEYIGDMYSHDGNTDEPEWVKTEREQFVEFRDKNRDGKMDKEETKDWILPSDYDHAEAEARHLVYESDQNKDGKLTKEEIVDKYDLFVGSQATDFGEALVRHDEF

From article PMC3387016
